# Measurements reported in PubChem BioAssay AID504793 (Drosophila RNAi Screening Center, 2011)
# Test: 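Knock-downs allowing continued mitosis even though DNA is damaged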 (primary screen)
# Cell system: Drosophila S2R+ cells
# Reagent: long dsRNA against Drosophila genes, about 0.25 µg dsRNA per well
# Duration: 4 days of dsRNA, then 4 hours of drug before read-out
# Challenge: doxorubicin 0.5 µM for 4 hours to cause double-strand breaks, in cells also given a low, harmless dose of dsRNA against nbs to sensitise the assay
# Measured: 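Per-well count of mitotic cells stained for phospho-histone H3 after doxorubicin exposure, used as mitotic index; counts are raw and not normalised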
# Direction: mitotic cells: higher = more cells in mitosis, weaker G2 arrest
# Hit rule: 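a call needs confirmation in secondary tests, with other dsRNAs and a check of mitotic timing without damage, not just a high primary count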
# Calls: active = confirmed in follow-up tests; inactive = not confirmed
# The deposit covers about 23,000 reagents; this is an unselected part of those with a known target gene and a result. Over the whole deposit, 62 (0.27%) are marked active. 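Calls come from follow-up tests whose scores are not deposited, so confirmed genes may have low counts here; counts are not normalised per plate.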 The raw values are shown without normalisation. Reagents against one gene are numbered here. Names joined by + are all predicted targets of the reagent. No sequences are given here.
predicted target,reagent no.,"mitotic cells, replicate 1","mitotic cells, replicate 2",activity call
bsf (bicoid stability factor),1,4,,inactive
SmD1 (Small ribonucleoprotein particle protein SmD1),1,3,,inactive
SmD1 (Small ribonucleoprotein particle protein SmD1),2,1,,inactive
CG4594,1,6,,inactive
Sce (Sex combs extra),1,8,,inactive
CG32006,1,6,,inactive
CG32006,2,4,,inactive
Mal-A4 (Maltase A4),1,7,,inactive
Mal-A4 (Maltase A4),2,3,,inactive
CG31386 (retired record),1,12,,inactive
CG31386 (retired record),2,3,,inactive
ph-d (polyhomeotic distal),1,14,,inactive
ph-d (polyhomeotic distal),2,6,,inactive
pzg (putzig),1,3,,inactive
CG32486,1,8,,inactive
CG32486,2,2,,inactive
CG4884,1,7,,inactive
CG4884,2,1,,inactive
l(3)04053 (lethal (3) 04053),1,4,6,inactive
Pli (Pellino),1,10,,inactive
Polr2A (RNA polymerase II subunit A),1,20,,active
Polr2A (RNA polymerase II subunit A),2,14,,inactive
CG12111,1,7,,inactive
CG12111,2,11,,inactive
CG3345,1,6,,inactive
Hmgs (HMG Coenzyme A synthase),1,5,,inactive
Hmgs (HMG Coenzyme A synthase),2,8,,inactive
CG13405,1,8,,inactive
CG13405,2,10,,inactive
CG10680,1,9,,inactive
Capa (Capability),1,2,,inactive
CG5653,1,4,,inactive
CG5653,2,4,,inactive
CG11426,1,6,,inactive
CG11426,2,3,,inactive
CG15357,1,3,,inactive
Tango14 (Transport and Golgi organization 14),1,3,,inactive
Tango14 (Transport and Golgi organization 14),2,6,,inactive
Gs1l (GS1-like),1,3,,inactive
CG17477,1,6,,inactive
CG17477,2,8,,inactive
Myo61F (Myosin 61F),1,8,,inactive
Myo61F (Myosin 61F),2,6,,inactive
CG33491 (retired record) + CG33496 (retired record) + CG33487 (retired record) + 1 more,1,9,,inactive
CG3306,1,8,,inactive
Men (Malic enzyme),1,6,,inactive
Men (Malic enzyme),2,14,,inactive
Men (Malic enzyme),3,8,,inactive
Men (Malic enzyme),4,5,,inactive
CG10353,1,12,,inactive
CG10353,2,4,,inactive
CG18210 (retired record),1,5,,inactive
CG18210 (retired record),2,6,,inactive
Aos1 (Activator of SUMO 1),1,5,,inactive
Aos1 (Activator of SUMO 1),2,4,,inactive
CG31661,1,9,,inactive
CG31661,2,9,,inactive
ND-39 (NADH dehydrogenase (ubiquinone) 39 kDa subunit),1,9,,inactive
ND-39 (NADH dehydrogenase (ubiquinone) 39 kDa subunit),2,5,,inactive
abs (abstrakt),1,6,,inactive
Nxt1 (NTF2-related export protein 1),1,3,,inactive
Nxt1 (NTF2-related export protein 1),2,7,,inactive
cry (cryptochrome),1,5,,inactive
CG8960,1,6,,inactive
CG8960,2,5,,inactive
Vps26 (Vacuolar protein sorting 26),1,1,,inactive
Vps26 (Vacuolar protein sorting 26),2,6,,inactive
Fer1 (48 related 1),1,8,,inactive
Fer1 (48 related 1),2,4,,inactive
Fer1 (48 related 1),3,10,,inactive
Jon66Ci (Jonah 66Ci),1,4,,inactive
Jon66Ci (Jonah 66Ci),2,6,,inactive
CG13693,1,3,,inactive
CG13693,2,9,,inactive
CD98hc (CD98 heavy chain),1,6,,inactive

14 successive records already listed, for reference:
predicted target,reagent no.,"mitotic cells, replicate 1","mitotic cells, replicate 2",activity call
CG11426,1,6,,inactive
CG11426,2,3,,inactive
CG15357,1,3,,inactive
Tango14 (Transport and Golgi organization 14),1,3,,inactive
Tango14 (Transport and Golgi organization 14),2,6,,inactive
Gs1l (GS1-like),1,3,,inactive
CG17477,1,6,,inactive
CG17477,2,8,,inactive
Myo61F (Myosin 61F),1,8,,inactive
Myo61F (Myosin 61F),2,6,,inactive
CG33491 (retired record) + CG33496 (retired record) + CG33487 (retired record) + 1 more,1,9,,inactive
CG3306,1,8,,inactive
Men (Malic enzyme),1,6,,inactive
Men (Malic enzyme),2,14,,inactive

More records follow:
predicted target,reagent no.,"mitotic cells, replicate 1","mitotic cells, replicate 2",activity call
lolal (lola like),1,6,,inactive
Osi6 (Osiris 6),1,12,,inactive
Osi6 (Osiris 6),2,4,,inactive
CG10086,1,3,,inactive
gt (giant),1,,,inactive
gt (giant),2,4,,inactive
CG12362,1,2,,inactive
Ilk (Integrin linked kinase),1,10,,inactive
Kaz (Katazuke),1,9,,inactive
CG31296,1,14,,inactive
Ppr-Y,1,5,,inactive
Tbcb (Tubulin-binding cofactor B),1,10,,inactive
CG32407,1,2,,inactive
CG4362,1,9,,inactive
CG33461,1,13,,inactive
CG33461,2,6,,inactive
Cerk (Ceramide kinase),1,4,,inactive
CG15093,1,7,,inactive
CG15093,2,4,,inactive
CG13511,1,6,,inactive
CG13511,2,4,,inactive
Sodq (Sodesque),1,10,,inactive
Sodq (Sodesque),2,7,,inactive
CG4962,1,8,,inactive
Idgf2 (Imaginal disc growth factor 2),1,7,,inactive
Idgf2 (Imaginal disc growth factor 2),2,2,,inactive
CG6276,1,7,,inactive
CG6276,2,8,,inactive
RpS12 (Ribosomal protein S12),1,6,,inactive
side-II (sidestep II),1,6,,inactive
side-II (sidestep II),2,13,,inactive
side-II (sidestep II),3,6,,inactive
side-II (sidestep II),4,9,,inactive
side-II (sidestep II),5,11,,inactive
CG13965,1,2,,inactive
CG31055,1,5,,inactive
CG8939,1,5,,inactive
CG33203,1,17,,inactive
CG33203,2,4,,inactive
CG33203,3,2,,inactive
kuk (kugelkern),1,3,,inactive
kuk (kugelkern),2,4,,inactive
CG14605,1,8,,inactive
CG14605,2,7,,inactive
CG11699,1,12,,inactive
CG11699,2,1,,inactive
CG3078,1,5,,inactive
CG3078,2,4,,inactive
CG30467,1,6,,inactive
Cec2 (Cecropin 2),1,6,,inactive
Cec2 (Cecropin 2),2,2,,inactive
CG43345,1,4,,inactive
CG10341,1,13,,inactive
Polr2M (RNA polymerase II subunit M),1,13,,inactive
Polr2M (RNA polymerase II subunit M),2,9,,inactive
CG2993,1,4,,inactive
CG2993,2,4,,inactive
CG2993,3,17,,inactive
shrb (shrub),1,8,,inactive
TBC1d7 (TBC1 domain family member 7),1,9,,inactive
Pkn (Protein kinase N),1,2,,inactive
Pkn (Protein kinase N),2,7,,inactive
Cpr66D (Cuticular protein 66D),1,4,,inactive
Cpr66D (Cuticular protein 66D),2,7,,inactive
CG4456 + Hsp22,1,5,,inactive
CG4456 + Hsp22,2,4,,inactive
